# The other results are listed elsewhere or left out. Shown are side measurements of this screen, not its main read-out; they come without a call. The list favours compounds with an active or inconclusive main result. Words in brackets tell the shape of the fitted curve; partial curves, single points and poor fits give uncertain potencies.
# Experiment: qHTS Assay for Lipid Storage Modulators in Drosophila S3 Cells;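 for cell number change: cells counted by Cell Tracker Red CMTPX staining in the red channel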
# Details: BODIPY lipid droplet fluorescence, 18-24 h; for cell number change: measured here: cell count max response, cells fed with added oleic acid
# Method in brief: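 Drosophila S3 cells got compounds at several concentrations plus oleic acid (400 uM solution). Laser-scanning cytometry with 488 nm excitation read lipid droplets at 500-530 nm and cells at 575-640 nm. Percent activity was relative to 20 uM Triacsin C.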
# [1] = measured here: cell number channel AC50, cells fed with added oleic acid
# [2] = measured here: lipid fluorescence (Fed channel) AC50, cells fed with added oleic acid
Structure (SMILES),cell number change [%],AC50 [1],AC50 [2]
CCC1CCCCN1c1cc(C)nc2cc(-c3cccc(C)c3)nn12 (configuration not stated),-42.2,"29100 nM [falling, single point]",–
COc1cc(-c2nnc(SCC#CCO)o2)cc(OC)c1OC,-16.5,"130 nM [rising, full curve, poor fit]","731 nM [rising, single point]"
O=C(Nc1ccc(C(=O)O)cc1)/C(=C\c1ccccc1)NC(=O)c1ccco1,12.2,–,"29100 nM [rising, single point]"
CCOC(=O)c1cnc2c(C)c(C)ccc2c1NCCN1CCOCC1,-13.9,–,–
CC(=O)c1ccc(COC(=O)c2ccccc2NC(=O)C(C)C)cc1,168,–,–
O=c1c2[nH]c3ccc(F)cc3c2ncn1CCCN1CCOCC1,-13.2,–,–
CCCCNCCOCCOc1ccc(F)cc1,-26.3,–,"36600 nM [falling, partial curve]"
CN(C)S(=O)(=O)c1cccc(NC(=S)N/N=C/c2cc(Br)ccc2O)c1,-27.1,–,–
Cc1cccc(N2C(=O)N3[C@H](c4ccc(Br)cc4)[C@@H]4C(=O)N(C(C)(C)C)C(=O)[C@@H]4[C@]3(Cc3ccc(Cl)cc3)C2=O)c1,55.1,"29100 nM [rising, partial curve]","580 nM [falling, full curve]"
COc1ccccc1N1CCN(C(=O)c2cc(-c3ccc(F)cc3)[nH]c2C)CC1,-31.7,"1160 nM [falling, full curve, poor fit]",–
COCCn1c(N)c(C(=O)NS(=O)(=O)c2ccc(C)cc2)c(=O)[nH]c1=O,-23.9,"51.7 nM [falling, full curve, poor fit]",–
Cc1ccc(Cn2c(=O)c3ccccc3n3c(CCC(=O)NCCN4CCOCC4)nnc23)cc1,5.93,"4.11 nM [rising, full curve, poor fit]",–
Cc1cc(=O)n2[nH]c(=O)c(N=Nc3ccccc3)c2[nH]1,15.5,–,"29100 nM [rising, single point]"
CC(=O)Nc1ccc(S(=O)(=O)NCc2ccc(C(=O)NCc3ccc4c(c3)OCO4)cc2)cc1,-19.8,"731 nM [falling, full curve, poor fit]","1840 nM [falling, full curve]"
C#CCn1cc[n+](CC(=O)N(C)C)c1,-31.9,"206 nM [falling, full curve]","3660 nM [falling, full curve]"
CC(=O)Nc1ccc(S(=O)(=O)N2CCC(n3cnc4cc(F)ccc43)CC2)cc1,-8.43,–,"20600 nM [falling, single point]"
Cc1cccc(Nc2nnc(SCC(=O)NCc3cccs3)s2)c1,-15.3,–,–
Cc1ccc(C)c(NC(=O)CN(C)C(=O)c2cccc(-n3cccc3)c2)c1,20.5,–,"731 nM [rising, full curve]"
O=C(NCc1ccco1)/C(=C\c1cccc([N+](=O)[O-])c1)NC(=O)c1ccco1,21.5,–,–
CCOC(=O)c1cnc(SCc2nc(N)nc(Nc3ccccc3OC)n2)nc1N,–,–,"23100 nM [rising, single point]"
O=C(Nc1ccn(Cc2ccccc2)n1)c1cccc(F)c1,–,"116 nM [rising, full curve, poor fit]",–

# Reformatted: 18 of the compounds above
Structure (SMILES) | cell number change [%] | AC50 [1] | AC50 [2]
CCC1CCCCN1c1cc(C)nc2cc(-c3cccc(C)c3)nn12 (configuration not stated) | -42.2 | 29100 nM [falling, single point] | –
COc1cc(-c2nnc(SCC#CCO)o2)cc(OC)c1OC | -16.5 | 130 nM [rising, full curve, poor fit] | 731 nM [rising, single point]
O=C(Nc1ccc(C(=O)O)cc1)/C(=C\c1ccccc1)NC(=O)c1ccco1 | 12.2 | – | 29100 nM [rising, single point]
CCOC(=O)c1cnc2c(C)c(C)ccc2c1NCCN1CCOCC1 | -13.9 | – | –
CC(=O)c1ccc(COC(=O)c2ccccc2NC(=O)C(C)C)cc1 | 168 | – | –
O=c1c2[nH]c3ccc(F)cc3c2ncn1CCCN1CCOCC1 | -13.2 | – | –
CCCCNCCOCCOc1ccc(F)cc1 | -26.3 | – | 36600 nM [falling, partial curve]
CN(C)S(=O)(=O)c1cccc(NC(=S)N/N=C/c2cc(Br)ccc2O)c1 | -27.1 | – | –
Cc1cccc(N2C(=O)N3[C@H](c4ccc(Br)cc4)[C@@H]4C(=O)N(C(C)(C)C)C(=O)[C@@H]4[C@]3(Cc3ccc(Cl)cc3)C2=O)c1 | 55.1 | 29100 nM [rising, partial curve] | 580 nM [falling, full curve]
COc1ccccc1N1CCN(C(=O)c2cc(-c3ccc(F)cc3)[nH]c2C)CC1 | -31.7 | 1160 nM [falling, full curve, poor fit] | –
COCCn1c(N)c(C(=O)NS(=O)(=O)c2ccc(C)cc2)c(=O)[nH]c1=O | -23.9 | 51.7 nM [falling, full curve, poor fit] | –
Cc1ccc(Cn2c(=O)c3ccccc3n3c(CCC(=O)NCCN4CCOCC4)nnc23)cc1 | 5.93 | 4.11 nM [rising, full curve, poor fit] | –
Cc1cc(=O)n2[nH]c(=O)c(N=Nc3ccccc3)c2[nH]1 | 15.5 | – | 29100 nM [rising, single point]
CC(=O)Nc1ccc(S(=O)(=O)NCc2ccc(C(=O)NCc3ccc4c(c3)OCO4)cc2)cc1 | -19.8 | 731 nM [falling, full curve, poor fit] | 1840 nM [falling, full curve]
C#CCn1cc[n+](CC(=O)N(C)C)c1 | -31.9 | 206 nM [falling, full curve] | 3660 nM [falling, full curve]
CC(=O)Nc1ccc(S(=O)(=O)N2CCC(n3cnc4cc(F)ccc43)CC2)cc1 | -8.43 | – | 20600 nM [falling, single point]
Cc1cccc(Nc2nnc(SCC(=O)NCc3cccs3)s2)c1 | -15.3 | – | –
Cc1ccc(C)c(NC(=O)CN(C)C(=O)c2cccc(-n3cccc3)c2)c1 | 20.5 | – | 731 nM [rising, full curve]

# Following part:

Structure (SMILES),cell number change [%],AC50 [1],AC50 [2]
COC(=O)c1ccccc1NC(=O)CSc1nnnn1C1CCCCC1,–,"65.1 nM [rising, partial curve, poor fit]",–
CSc1ccc(/C=C(/NC(=O)c2ccccc2)C(=O)N2CCN(C)CC2)cc1,-9.05,–,–
O=C(Nc1ccon1)C(Sc1ccccc1)c1ccccc1 (configuration not stated),-5.48,"130 nM [falling, full curve, poor fit]","92 nM [falling, full curve, poor fit]"
CC(=O)Oc1ccc(N2C(=O)CCC2=O)cc1,2.08,–,–
CCNC(=S)N1CCN(S(=O)(=O)c2ccccc2C(F)(F)F)CC1,–,"4.61 nM [falling, full curve, poor fit]","29100 nM [falling, single point]"
C#CCn1ccc(O)c(Cc2ccccc2)c1=O,24.7,–,"92 nM [rising, full curve, poor fit]"
CC(C)[C@H](N[C@@H](C)c1ccccc1)c1c(O)ccc2ccccc12,17.5,–,–
COC(=O)CNC(=O)COC(=O)Cc1ccc(Cl)cc1,-47.2,–,"29100 nM [falling, single point]"
CCCc1c(C(=O)N2CCN(c3ccccc3OC)CC2)cnn1-c1ccccc1,17.7,"411 nM [falling, full curve]","517 nM [falling, full curve]"
CCCCCCSc1nsc(NC(=O)CCC)n1,–,–,"6510 nM [falling, single point]"
COc1cccc(C2CC(=O)Nc3cc(OC)c(OC)c(OC)c32)c1OC (configuration not stated),-31.1,"1840 nM [falling, full curve, poor fit]","580 nM [rising, single point]"
CC1CCCC(NC(=O)C2CCN(S(=O)(=O)N3CCCCC3)CC2)C1C (configuration not stated),5.32,–,"103 nM [rising, full curve, poor fit]"
CC(C)CNC(=O)C1CCN(S(=O)(=O)c2ccc(-n3cnnn3)cc2)CC1,30.3,–,–
O=C(C1COc2ccccc2O1)N1CCN(Cc2ccc3c(c2)OCO3)CC1 (configuration not stated),-6.14,"259 nM [rising, full curve]","184 nM [rising, full curve, poor fit]"
COc1cc(/C=N/Nc2nc(C)cc(C)n2)cc(OC)c1OC,-0.552,–,–
O=C(NCCCN1CCOCC1)c1ccc(Cl)c(S(=O)(=O)N2CCCCCC2)c1,–,–,"32.6 nM [falling, full curve, poor fit]"
CCOC(=O)Cc1c(C)nc2c(-c3ccccc3)c(-c3ccccc3)[nH]n2c1=O,-31.1,"20600 nM [falling, single point]","3660 nM [falling, partial curve]"
COc1ccc([N+](=O)[O-])cc1NC(=O)CCC(=O)c1cccs1,34.8,"4.11 nM [rising, full curve, poor fit]","231 nM [rising, full curve, poor fit]"
Cc1ccc(N2Cc3ccccc3C2=O)cc1,-5.74,–,"5170 nM [falling, single point]"
CCOC(=O)C(=O)c1cn(C2OCC(OC(C)=O)C(OC(C)=O)C2OC(C)=O)c2ccccc12 (configuration not stated),6.58,–,"820 nM [falling, single point]"
COc1ccc(NC(=O)c2cc(S(=O)(=O)N3CCCCC3)c[nH]2)cc1,11.1,–,"366 nM [rising, partial curve, poor fit]"

Structure (SMILES),cell number change [%],AC50 [1],AC50 [2]
CCN(CC)S(=O)(=O)c1ccc(Cl)c(NC2=NCCCCC2)c1,4.77,–,"92 nM [falling, full curve, poor fit]"
O=C1C2C3CCC(C3)C2C(=O)N1c1ccc2ccccc2c1 (configuration not stated),14.7,–,"29100 nM [rising, single point]"
Cc1c(Cl)cccc1-n1c(SCC(=O)NCc2cccs2)nnc1-c1ccncc1,-7.51,–,–
CCc1noc(C)c1C(=O)N1CCCC(C(=O)c2ccc(OC)c(F)c2)C1 (configuration not stated),–,–,"731 nM [falling, single point]"
COc1ccc(S(=O)(=O)NCc2cccnc2)c2ccccc12,7.83,–,–
O=C1N(Cc2ccccc2)c2ccccc2C12OCCO2,4.92,–,"2060 nM [rising, partial curve, poor fit]"
O=C(NCc1ccco1)c1c2c(nc3ccccc13)CCC2,-5.92,–,"1840 nM [rising, partial curve, poor fit]"
Cc1ccc(Cl)cc1N1CCN(C(=O)CCCn2c(=O)c3cccn3c3cccnc32)CC1,-23.2,–,–
COc1ccc(C(=O)C2CCCN(C(=O)c3cnsn3)C2)c(C)c1 (configuration not stated),11.6,–,"8200 nM [rising, partial curve, poor fit]"
CC(C)c1noc2ncc(C(=O)c3cc(Cl)cc(Cl)c3O)cc12,-11.5,"820 nM [falling, full curve, poor fit]",–
CC(=O)NC(Cc1ccccc1)C(=O)OCC(=O)c1ccc(Br)cc1 (configuration not stated),-2.69,–,"10300 nM [falling, single point]"
CCc1nnc(NS(=O)(=O)c2ccc(NC(=S)NC(=O)c3ccc(F)cc3)cc2)s1,11.4,–,"23100 nM [rising, single point]"
O=C(CCN1C(=O)/C(=C\C=C\c2ccccc2)SC1=S)Nc1ccc(C(=O)O)cc1,-25,–,"1640 nM [falling, full curve]"
O=C(CCC1CCCC1)Nc1nnc(-c2ccc3c(c2)OCO3)s1,74.3,"164 nM [rising, full curve, poor fit]","11600 nM [rising, partial curve]"
CC(C)Cn1c(CCNC(=O)c2ccco2)nc2ccccc21,–,–,"5170 nM [falling, full curve]"
S=C(NCCNC(=S)Nc1ccccc1)Nc1ccccc1,4.4,–,–
COC(=O)c1ccc(NC(=O)COC(=O)C2CC(=O)N(Cc3ccccc3)C2)cc1 (configuration not stated),-83.1,"14600 nM [falling, partial curve]",–
CCn1c(C(O)c2cc(OC)ccc2OC)nc2ccccc21 (configuration not stated),-17.1,–,"29100 nM [falling, single point]"
O=C(CN(CC1CCCO1)C(=O)CCC(=O)Nc1ccccn1)NCC1CCCO1 (configuration not stated),3.81,"7.31 nM [falling, full curve, poor fit]","651 nM [falling, full curve]"

# Reference: PubChem BioAssay AID2685 (National Center for Advancing Translational Sciences (NCATS), 2010)
